Some entries share one result that the patent states for a list of compounds.
Legend:
Format in all cases: in vivo
[1] = tested on: barley scald fungus (Rhynchosporium secalis); assay: Barley scald control test, foliar spray on barley (Test Examples 20, 21); settings: 200 ppm foliar spray, barley NISHINOHOSHI, inoculated after 2 days
[2] = tested on: cucumber anthracnose fungus (Colletotrichum lagenarium); assay: Cucumber anthracnose control test (Test Examples 28, 29); settings: cucumber SAGAMI HANJIRO, inoculated after one day
[3] = tested on: soybean rust fungus (Phakopsora pachyrhizi); assay: Soybean rust control test, foliar spray on soybean (Test Example 19); settings: 200 ppm foliar spray, soybean KUROSENGOKU, inoculated after 2 days
[4] = tested on: wheat leaf blotch fungus (Septoria tritici); assay: Wheat leaf blotch control test, spray before inoculation (Test Examples 6, 9, 10, Comparative Test Example); settings: wheat APOGEE, inoculated after 4 days
[5] = tested on: barley net blotch fungus (Pyrenophora teres); assay: Barley net blotch control test, foliar spray on barley (Test Examples 4, 16, 17, 18); settings: barley NISHINOHOSHI, inoculated after 2 days
[6] = tested on: kidney bean stem rot fungus (Sclerotinia sclerotiorum); assay: Kidney bean stem rot control test, foliar spray on kidney bean (Test Examples 5, 22, 23); settings: kidney bean NAGAUZURA NATANE, four days after inoculation
[7] = tested on: wheat leaf blotch fungus (Septoria tritici); assay: Wheat leaf blotch control test, spray after inoculation (Test Example 8); settings: 200 ppm foliar spray 3 days after inoculation, wheat APOGEE
[8] = tested on: cucumber corynespora leaf spot fungus (Corynespora cassicola); assay: Cucumber corynespora leaf spot control test (Test Examples 26, 27); settings: cucumber SAGAMI HANJIRO, inoculated after one day, 7 days

Measured: area of lesion spots relative to that on an untreated plant

CCc1cccc(-c2ccc(OCc3c(C)cccc3-n3nnn(C)c3=O)c(C)c2)n1 [Present Compound 42]
≤ 30%: [1] | [2]; 200 ppm foliar spray | [3] | [4]; 200 ppm foliar spray | [4]; 500 ppm foliar spray | [5]; 200 ppm foliar spray | [5]; 500 ppm foliar spray | [6]; 200 ppm foliar spray | [6]; 500 ppm foliar spray | [7] | [8]; 200 ppm foliar spray

CCc1cccc(-n2nnn(C)c2=O)c1COc1ccc(-c2ncccn2)cc1C [Present Compound 84]
≤ 30%: [1] | [2]; 50 ppm foliar spray | [3] | [4]; 200 ppm foliar spray | [4]; 500 ppm foliar spray | [5]; 200 ppm foliar spray | [5]; 500 ppm foliar spray | [6]; 200 ppm foliar spray | [6]; 500 ppm foliar spray | [7] | [8]; 200 ppm foliar spray

Cc1ccnc(-c2cc(C)c(OCc3c(C)cccc3-n3nnn(C)c3=O)cc2C)c1 [Present Compound 164]
≤ 30%: [1] | [2]; 200 ppm foliar spray | [3] | [4]; 200 ppm foliar spray | [5]; 200 ppm foliar spray | [6]; 200 ppm foliar spray | [7] | [8]; 200 ppm foliar spray

Cc1cc(-c2ccccn2)ccc1OCc1c(C)cccc1-n1nnn(C)c1=O [Present Compound 5]
≤ 30%: [1] | [2]; 50 ppm foliar spray | [3] | [4]; 200 ppm foliar spray | [4]; 500 ppm foliar spray | [5]; 200 ppm foliar spray | [5]; 500 ppm foliar spray | [6]; 50 ppm foliar spray | [6]; 500 ppm foliar spray | [7] | [8]; 50 ppm foliar spray

Cc1cc(OCc2c(C)cccc2-n2nnn(C)c2=O)c(F)cc1-c1ccccn1 [Present Compound 187]
≤ 30%: [1] | [2]; 200 ppm foliar spray | [3] | [4]; 200 ppm foliar spray | [4]; 500 ppm foliar spray | [5]; 200 ppm foliar spray | [5]; 500 ppm foliar spray | [6]; 200 ppm foliar spray | [6]; 500 ppm foliar spray | [7] | [8]; 200 ppm foliar spray

CCc1cccc(-n2nnn(C)c2=O)c1COc1cc(C)c(-c2ccc(F)cn2)cc1C [Present Compound 215]
≤ 30%: [1] | [2]; 200 ppm foliar spray | [3] | [4]; 200 ppm foliar spray | [4]; 500 ppm foliar spray | [5]; 200 ppm foliar spray | [5]; 500 ppm foliar spray | [6]; 200 ppm foliar spray | [6]; 500 ppm foliar spray | [7] | [8]; 200 ppm foliar spray

Reference: patent US9888688B2, “Tetrazolinone compounds and applications thereof” (Sumitomo Chemical Company, Limited, priority 2013, dated 2018)
